Experimental findings from publication PMC4664883, “Selective targeting of nuclear receptor FXR by avermectin analogues with therapeutic effects on nonalcoholic fatty liver disease” (Scientific Reports, 2015) are described below.

The chains behind the UniProt entries cited, without tags or fusion partners. Where a name states a change or a piece, a line headed by the entry shows the natural chain unless it says otherwise.
UniProt Q96RI1: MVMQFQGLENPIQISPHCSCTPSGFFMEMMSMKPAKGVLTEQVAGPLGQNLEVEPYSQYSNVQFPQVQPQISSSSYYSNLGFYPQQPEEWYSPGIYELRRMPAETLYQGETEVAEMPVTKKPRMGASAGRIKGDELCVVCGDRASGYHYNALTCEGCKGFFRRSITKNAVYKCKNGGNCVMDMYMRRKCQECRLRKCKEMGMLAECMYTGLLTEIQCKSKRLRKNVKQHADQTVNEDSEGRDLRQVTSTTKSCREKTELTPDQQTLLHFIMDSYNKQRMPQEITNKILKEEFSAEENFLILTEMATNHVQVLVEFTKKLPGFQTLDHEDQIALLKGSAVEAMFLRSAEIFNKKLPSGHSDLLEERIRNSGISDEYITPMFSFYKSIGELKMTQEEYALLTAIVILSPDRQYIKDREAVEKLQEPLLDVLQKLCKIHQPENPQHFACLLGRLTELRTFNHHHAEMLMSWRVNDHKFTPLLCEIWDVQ

These are yes or no findings as the source states them, for the method shown. Binding can be weak; no strength is given.

This assay has as its target his-tagged FXR ligand binding domain (LBD) (UniProt Q96RI1). Description: AlphaScreen or HTRF; His-tagged FXR LBD with N-terminally biotinylated cofactor peptide, hexahistidine detection kit; with ivermectin, doramectin or abamectin as the FXR ligand (0.5 μM in Fig. 4a); both purified.

In the case of GHSFADPASNLGLEDIIRKALMGSF (N-terminal biotinylation) [biotin-NCoR-2 peptide (nuclear receptor corepressor, motif 2)], the binding result is listed as “binds”.
